PubChem BioAssay AID1224828, NIAID, 2016

Purpose: 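Find genes required for NF-kappaB p65 moving into the nucleus after LPS in mouse macrophages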 (primary screen)
Cell system: mouse RAW264.7 G9 macrophage reporter cells (GFP-p65, Tnf promoter-mCherry)
Knock-down reagent: siRNA pool against mouse genes, 100 nM
Timing: 2 days siRNA transfection, then 40 min LPS before fixation
Conditions: LPS (Salmonella minnesota R595) at 10 ng/ml
Measured: 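Imaged p65 nuclear translocation ratio, normalised to the plate median, converted to robust z-scores and averaged across two replicates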
Reading the numbers: p65 translocation robust z-score: higher = more nuclear NF-kappaB p65 after LPS than the plate median; nuclear/cytoplasmic p65 ratio: higher = more nuclear NF-kappaB p65
Call rule: 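Called active when z exceeds 3.3 or falls under -1.56 (median of Tlr4 controls), giving activity score of at least 50; no calls for control wells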
Calls: active = hit (p65 shift raised or lowered); inactive = no clear change
The deposit covers about 17,000 reagents; this is a part drawn at random. Over the whole deposit, 762 (4.5%) got an active call. 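Active calls include both raised and lowered p65 entry, mostly lowered; wells with fewer than 50 cells lack a z-score.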 Raw values vary from plate to plate and are shown uncorrected. A number with no mark means an inactive call. No sequences are given here.

Gene,p65 translocation robust z-score,"nuclear/cytoplasmic p65 ratio, rep 1","nuclear/cytoplasmic p65 ratio, rep 2",low cell count flag
"Prl3d1 (prolactin family 3, subfamily d, member 1)",-0.8,1.32,1.8,enough cells to score
Krt222 (keratin 222),0.34,1.37,1.54,enough cells to score
Snx1 (sorting nexin 1),,1.48,0.964,fewer than 50 cells per well; well left out of scoring
Dap3 (death associated protein 3),0.02,1.46,1.38,enough cells to score
5830427D03Rik (retired record),0.45,1.39,1.52,enough cells to score
Klf6 (Kruppel-like transcription factor 6),1.58,1.73,1.55,enough cells to score
Ceacam1 (CEA cell adhesion molecule 1),0.75,1.54,2.08,enough cells to score
Slc22a3,-0.06,1.34,1.29,enough cells to score
Rspo2 (R-spondin 2),,1.09,1.24,fewer than 50 cells per well; well left out of scoring
Tpi1 (triosephosphate isomerase 1),-0.68,1.45,1.4,enough cells to score
Tlr7 (toll-like receptor 7),0.12,1.5,1.57,enough cells to score
Or1e23 (olfactory receptor family 1 subfamily E member 23),1.7,1.86,1.62,enough cells to score
Cmc1 (C-X9-C motif containing 1),-3.04 (active),0.971,0.963,enough cells to score
Spr (sepiapterin reductase),0.64,1.64,1.64,enough cells to score
Rhbdl3 (rhomboid like 3),-0.18,1.38,1.21,enough cells to score
"Akr1c14 (aldo-keto reductase family 1, member C14)",-0.09,1.55,1.53,enough cells to score
Plaat3 (phospholipase A and acyltransferase 3),-1.85 (active),1.32,1.32,enough cells to score
Gbp2b (guanylate binding protein 2b),1.1,1.54,1.55,enough cells to score
Zfp830 (zinc finger protein 830),,1.45,1.33,fewer than 50 cells per well; well left out of scoring
"Klra23 (killer cell lectin-like receptor subfamily A, member 23)",-0.04,1.5,1.35,enough cells to score
2810428J06Rik (RIKEN cDNA 2810428J06 gene),2.89,1.63,1.34,enough cells to score
Ttc14 (tetratricopeptide repeat domain 14),,1.16,1.17,fewer than 50 cells per well; well left out of scoring
1810043J12RIK,,1.73,1.14,fewer than 50 cells per well; well left out of scoring
Fibin (fin bud initiation factor homolog (zebrafish)),0.29,1.58,1.49,enough cells to score
Mrps6 (mitochondrial ribosomal protein S6),0.17,1.79,1.63,enough cells to score
Cd300ld (CD300 molecule like family member d),-1.47,0.997,1.09,enough cells to score
Ak4 (adenylate kinase 4),-0.46,1.58,1.33,enough cells to score
Osbpl5 (oxysterol binding protein-like 5),0.76,1.56,1.32,enough cells to score
Cxcl16 (C-X-C motif chemokine ligand 16),-0.23,1.57,1.71,enough cells to score
Mia (MIA SH3 domain containing),0.32,1.45,1.42,enough cells to score
Ovca2 (candidate tumor suppressor in ovarian cancer 2),1.04,1.61,1.53,enough cells to score
"Gprc5c (G protein-coupled receptor, family C, group 5, member C)",-1.3,1.33,1.39,enough cells to score
Cxadr (coxsackie virus and adenovirus receptor),1.29,1.7,1.5,enough cells to score
Aspa (aspartoacylase),1.05,1.83,1.71,enough cells to score
Or10q1b (olfactory receptor family 10 subfamily Q member 1B),3.44 (active),2.04,1.95,enough cells to score
A630026L20,-0.93,1.23,1.43,enough cells to score
Emd (emerin),-0.58,1.53,1.28,enough cells to score
Osbp (oxysterol binding protein),1.05,1.62,1.52,enough cells to score
"Farsa (phenylalanyl-tRNA synthetase, alpha subunit)",-1.38,1.31,1.18,enough cells to score
Prmt5 (protein arginine N-methyltransferase 5),-1.51,1.34,1.36,enough cells to score
Rpp30 (ribonuclease P/MRP 30 subunit),0.55,1.51,1.26,enough cells to score
Uba7 (ubiquitin-like modifier activating enzyme 7),-0.04,1.53,1.48,enough cells to score
Csf1r (colony stimulating factor 1 receptor),0.04,1.74,1.36,enough cells to score
Mogs (mannosyl-oligosaccharide glucosidase),-1.07,1.22,1.3,enough cells to score
Or3a10 (olfactory receptor family 3 subfamily A member 10),-1.14,1.37,1.4,enough cells to score
Nup88 (nucleoporin 88),1.11,1.96,1.63,enough cells to score
Snx8 (sorting nexin 8),,1.23,1.26,fewer than 50 cells per well; well left out of scoring
Mag (myelin-associated glycoprotein),1.7,2.07,1.72,enough cells to score
Or52e5 (olfactory receptor family 52 subfamily E member 5),0.08,1.4,1.28,enough cells to score
Mat2a (methionine adenosyltransferase 2A),1.55,1.91,1.82,enough cells to score
"Il12rb1 (interleukin 12 receptor, beta 1)",0.02,1.47,1.35,enough cells to score
Plekhf1 (pleckstrin homology and FYVE domain containing 1),1.78,1.57,1.45,enough cells to score
Arhgap1 (Rho GTPase activating protein 1),0.01,1.61,1.63,enough cells to score
Arl11 (ADP-ribosylation factor-like 11),1.13,1.74,1.99,enough cells to score
Polr1f (RNA polymerase I subunit F),2.66,1.74,1.49,enough cells to score
Zfp467 (zinc finger protein 467),0.92,1.5,1.39,enough cells to score
Rbks (ribokinase),-1.26,1.55,1.22,enough cells to score
Sp6 (trans-acting transcription factor 6),,1.23,1.02,fewer than 50 cells per well; well left out of scoring
Or52r1b (olfactory receptor family 52 subfamily R member 1B),-0.32,1.4,1.19,enough cells to score

7 entries from above in another layout:
{"Gene":"Rspo2 (R-spondin 2)","nuclear/cytoplasmic p65 ratio, rep 1":1.09,"nuclear/cytoplasmic p65 ratio, rep 2":1.24,"low cell count flag":"fewer than 50 cells per well; well left out of scoring"}
{"Gene":"Tpi1 (triosephosphate isomerase 1)","p65 translocation robust z-score":-0.68,"nuclear/cytoplasmic p65 ratio, rep 1":1.45,"nuclear/cytoplasmic p65 ratio, rep 2":1.4,"low cell count flag":"enough cells to score"}
{"Gene":"Tlr7 (toll-like receptor 7)","p65 translocation robust z-score":0.12,"nuclear/cytoplasmic p65 ratio, rep 1":1.5,"nuclear/cytoplasmic p65 ratio, rep 2":1.57,"low cell count flag":"enough cells to score"}
{"Gene":"Or1e23 (olfactory receptor family 1 subfamily E member 23)","p65 translocation robust z-score":1.7,"nuclear/cytoplasmic p65 ratio, rep 1":1.86,"nuclear/cytoplasmic p65 ratio, rep 2":1.62,"low cell count flag":"enough cells to score"}
{"Gene":"Cmc1 (C-X9-C motif containing 1)","p65 translocation robust z-score":"-3.04 (active)","nuclear/cytoplasmic p65 ratio, rep 1":0.971,"nuclear/cytoplasmic p65 ratio, rep 2":0.963,"low cell count flag":"enough cells to score"}
{"Gene":"Spr (sepiapterin reductase)","p65 translocation robust z-score":0.64,"nuclear/cytoplasmic p65 ratio, rep 1":1.64,"nuclear/cytoplasmic p65 ratio, rep 2":1.64,"low cell count flag":"enough cells to score"}
{"Gene":"Rhbdl3 (rhomboid like 3)","p65 translocation robust z-score":-0.18,"nuclear/cytoplasmic p65 ratio, rep 1":1.38,"nuclear/cytoplasmic p65 ratio, rep 2":1.21,"low cell count flag":"enough cells to score"}
